Source: PubChem BioAssay AID248 (DTP/NCI, 2004)
The list shows only some results of the screen, not a fair sample: it gathers tests that were run many times, whatever their T/C, doses with no T/C, and many T/C values between a quarter and a half above the control. Other doses and runs of a compound stand elsewhere. T/C: endpoint of the treated group in % of that of the vehicle group. Some entries give survivors of the animals treated and no T/C: the source files T/C as zero there, which appears to mark a toxic dose or a test without result, not a measured value. Some doses without a T/C left all or most animals alive at the check, yet need not have been tolerated: survival well below the control is almost never listed, so the zero probably covers shortened survival too. Counts of survivors are from the toxicity check (mostly the fifth day) where no day follows; animals may have died later. Schedules are NCI's codes, read here as Q, the interval in days (D) or hours (H), X, the number of doses. Some doses were run more than once; their values stand side by side, smallest first. For survival time, the PubChem record calls one and a half times the control and up active, and a quarter to a half above the control has no call in these data; cut-offs in other NCI protocols can differ. Marks such as (2×) stand for listed records that agree. Some T/C values are followed by the survivors on the day toxicity was checked, most often the fifth; without a count, all were alive then. Some schedules carry Z or #; the key to these is not given.

Test system: L1210 leukemia ip in BDF1 mice, survival T/C
Assay: NCI In Vivo Anticancer Drug Screen. Data for tumor model L1210 Leukemia (intraperitoneal) in B6D2F1 (BDF1) mice
Conditions: T/C endpoint: mean survival time, higher T/C = longer survival
[1] = dose: 256.0 mg/kg/injection, schedule: Q01DX009 (ip), vehicle: saline with Tween-80

Nc1nncs1
T/C (dose: 30.0 mg/kg/injection, schedule: Q01DX015 (ip), vehicle: saline): 137 % of control | T/C (dose: 30.0 mg/kg/injection, schedule: Q01DX Z (ip), vehicle: carboxymethylcellulose (CMC)): 131 % of control | T/C (dose: 32.0 mg/kg/injection, schedule: Q01DX009 (ip), vehicle: Klucel (hydroxypropylcellulose) (HPC)): 133 % of control | T/C (dose: 32.0 mg/kg/injection, schedule: Q01DX009 (ip), vehicle: saline with Tween-80): 115, 118, 124, 135 % of control | T/C (dose: 32.0 mg/kg/injection, schedule: Q01DX009 (ip), vehicle: saline, evaluated on day 30): 108, 124 (2×), 127, 128, 129, 131, 134, 135 % of control [4 of 6 alive] | T/C (dose: 32.0 mg/kg/injection, schedule: Q01DX009 (ip), vehicle: saline, evaluated on day 60): 128 and 138 % of control | T/C (dose: 40.0 mg/kg/injection, schedule: Q01DX015 (ip), vehicle: saline): 142 % of control | T/C (dose: 40.0 mg/kg/injection, schedule: Q01DX Z (ip), vehicle: carboxymethylcellulose (CMC)): 125 % of control | T/C (dose: 62.0 mg/kg/injection, schedule: Q04DX003 (ip), vehicle: saline): 140 % of control | T/C (dose: 64.0 mg/kg/injection, schedule: Q01DX009 (ip), vehicle: saline with Tween-80): 104 [5 of 6 alive], 126, 136, 143 % of control [5 of 6 alive] | T/C (dose: 64.0 mg/kg/injection, schedule: Q01DX009 (ip), vehicle: saline, evaluated on day 30): 110, 124, 126, 129, 131, 133, 143, 148, 150 % of control | T/C (dose: 64.0 mg/kg/injection, schedule: Q01DX009 (ip), vehicle: saline, evaluated on day 60): 131 and 138 % of control | survivor count (dose: 100.0 mg/kg/injection, schedule: Q01DX009 (ip), vehicle: saline): 6 of 6 | T/C (dose: 123.0 mg/kg/injection, schedule: Q04DX003 (ip), vehicle: saline): 138 % of control | T/C (dose: 125.0 mg/kg/injection, schedule: Q04DX003 (ip), vehicle: saline): 125 % of control (2×) | T/C (dose: 128.0 mg/kg/injection, schedule: Q01DX009 (ip), vehicle: saline with Tween-80): 94 (2×), 113 [5 of 6 alive], 133 % of control [5 of 6 alive] | T/C (dose: 128.0 mg/kg/injection, schedule: Q01DX009 (ip), vehicle: saline, evaluated on day 30): 90, 92 [5 of 6 alive], 101, 102, 108, 119, 145, 150, 155 % of control | T/C (dose: 128.0 mg/kg/injection, schedule: Q01DX009 (ip), vehicle: saline, evaluated on day 60): 101 and 131 % of control | survivor count (dose: 200.0 mg/kg/injection, schedule: Q01DX009 (ip), vehicle: saline): 5 of 6 | T/C (dose: 250.0 mg/kg/injection, schedule: Q04DX003 (ip), vehicle: saline): 134 and 140 % of control | survivor count (dose: 256.0 mg/kg/injection, schedule: Q01DX009 (ip), vehicle: Klucel (hydroxypropylcellulose) (HPC)): 6 of 6 | T/C [1]: 88 % of control [5 of 6 alive] | survivor count [1]: 3 of 6 and 5 of 6 | T/C (dose: 256.0 mg/kg/injection, schedule: Q01DX009 (ip), vehicle: saline, evaluated on day 30): 90, 98, 104 [5 of 6 alive], 112 % of control | T/C (dose: 256.0 mg/kg/injection, schedule: Q01DX009 (ip), vehicle: saline, evaluated on day 60): 95 % of control | survivor count (dose: 256.0 mg/kg/injection, schedule: Q01DX009 (ip), vehicle: saline): 4 of 6, 5 of 6, 10 of 10 | T/C (dose: 256.0 mg/kg/injection, schedule: Q04DX003 (ip), vehicle: saline): 129 % of control | T/C (dose: 400.0 mg/kg/injection, schedule: Q01DX001 (ip), vehicle: saline): 126 % of control | survivor count (dose: 400.0 mg/kg/injection, schedule: Q01DX009 (ip), vehicle: saline): 2 of 6 | T/C (dose: 500.0 mg/kg/injection, schedule: Q04DX003 (ip), vehicle: saline): 148 % of control | T/C (dose: 512.0 mg/kg/injection, schedule: Q04DX003 (ip), vehicle: saline): 135 % of control | T/C (dose: 900.0 mg/kg/injection, schedule: Q01DX001 (ip), vehicle: saline): 129 % of control | survivor count (dose: 1000.0 mg/kg/injection, schedule: Q04DX003 (ip), vehicle: saline): 0 of 6 | T/C (dose: 1350.0 mg/kg/injection, schedule: Q01DX001 (ip), vehicle: saline): 127 % of control

O=C(O)COc1ccc(F)cc1Cl
survivor count (dose: 50.0 mg/kg/injection, schedule: Q01DX009 (ip), vehicle: Klucel (hydroxypropylcellulose) (HPC)): 0 of 6
